Measurements from the supplement of paper PMC12819154, “High-throughput peptide-centric local stability assay extends protein–ligand identification to membrane proteins, tissues and bacteria” (Nature Structural & Molecular Biology, 2025).
This is one part of the list. Most entries show no effect beyond the scatter of the controls.

Amino acid sequences for entries named in this document (tags omitted). A change or cut given only in a name is not applied to a line headed by its entry.
UniProt Q61508: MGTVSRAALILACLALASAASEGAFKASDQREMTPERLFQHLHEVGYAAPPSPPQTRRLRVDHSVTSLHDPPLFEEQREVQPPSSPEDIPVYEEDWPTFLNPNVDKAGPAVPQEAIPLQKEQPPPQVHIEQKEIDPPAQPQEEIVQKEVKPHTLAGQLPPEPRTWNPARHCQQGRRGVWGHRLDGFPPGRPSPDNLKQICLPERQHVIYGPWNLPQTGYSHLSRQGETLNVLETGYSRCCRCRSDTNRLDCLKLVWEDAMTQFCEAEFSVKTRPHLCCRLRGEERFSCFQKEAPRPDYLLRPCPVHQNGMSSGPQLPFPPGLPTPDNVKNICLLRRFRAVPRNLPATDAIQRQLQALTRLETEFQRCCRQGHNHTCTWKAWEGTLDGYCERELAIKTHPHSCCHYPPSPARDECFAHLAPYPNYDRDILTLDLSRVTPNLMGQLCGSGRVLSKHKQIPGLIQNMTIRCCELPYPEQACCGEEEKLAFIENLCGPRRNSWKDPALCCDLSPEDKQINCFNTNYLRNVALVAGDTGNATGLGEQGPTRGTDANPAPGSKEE
UniProt Q62276: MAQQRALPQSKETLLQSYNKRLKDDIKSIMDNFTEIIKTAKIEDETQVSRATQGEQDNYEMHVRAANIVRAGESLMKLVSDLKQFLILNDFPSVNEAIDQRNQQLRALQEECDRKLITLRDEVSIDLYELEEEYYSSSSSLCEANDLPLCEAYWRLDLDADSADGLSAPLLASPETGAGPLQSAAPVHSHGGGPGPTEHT
UniProt Q61908: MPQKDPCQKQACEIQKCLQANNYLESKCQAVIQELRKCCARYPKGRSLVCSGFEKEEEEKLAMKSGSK
UniProt Q64707: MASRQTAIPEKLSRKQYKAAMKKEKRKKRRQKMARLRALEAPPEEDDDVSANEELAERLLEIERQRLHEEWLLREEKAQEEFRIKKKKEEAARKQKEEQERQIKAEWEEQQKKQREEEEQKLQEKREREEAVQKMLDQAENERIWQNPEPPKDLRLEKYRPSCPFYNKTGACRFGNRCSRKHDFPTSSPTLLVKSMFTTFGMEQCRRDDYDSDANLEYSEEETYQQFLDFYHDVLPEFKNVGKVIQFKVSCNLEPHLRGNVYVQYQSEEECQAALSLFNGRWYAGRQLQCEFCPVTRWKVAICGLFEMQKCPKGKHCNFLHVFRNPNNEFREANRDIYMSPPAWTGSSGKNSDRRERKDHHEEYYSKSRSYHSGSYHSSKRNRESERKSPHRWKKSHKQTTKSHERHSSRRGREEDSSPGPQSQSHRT
UniProt Q65Z40: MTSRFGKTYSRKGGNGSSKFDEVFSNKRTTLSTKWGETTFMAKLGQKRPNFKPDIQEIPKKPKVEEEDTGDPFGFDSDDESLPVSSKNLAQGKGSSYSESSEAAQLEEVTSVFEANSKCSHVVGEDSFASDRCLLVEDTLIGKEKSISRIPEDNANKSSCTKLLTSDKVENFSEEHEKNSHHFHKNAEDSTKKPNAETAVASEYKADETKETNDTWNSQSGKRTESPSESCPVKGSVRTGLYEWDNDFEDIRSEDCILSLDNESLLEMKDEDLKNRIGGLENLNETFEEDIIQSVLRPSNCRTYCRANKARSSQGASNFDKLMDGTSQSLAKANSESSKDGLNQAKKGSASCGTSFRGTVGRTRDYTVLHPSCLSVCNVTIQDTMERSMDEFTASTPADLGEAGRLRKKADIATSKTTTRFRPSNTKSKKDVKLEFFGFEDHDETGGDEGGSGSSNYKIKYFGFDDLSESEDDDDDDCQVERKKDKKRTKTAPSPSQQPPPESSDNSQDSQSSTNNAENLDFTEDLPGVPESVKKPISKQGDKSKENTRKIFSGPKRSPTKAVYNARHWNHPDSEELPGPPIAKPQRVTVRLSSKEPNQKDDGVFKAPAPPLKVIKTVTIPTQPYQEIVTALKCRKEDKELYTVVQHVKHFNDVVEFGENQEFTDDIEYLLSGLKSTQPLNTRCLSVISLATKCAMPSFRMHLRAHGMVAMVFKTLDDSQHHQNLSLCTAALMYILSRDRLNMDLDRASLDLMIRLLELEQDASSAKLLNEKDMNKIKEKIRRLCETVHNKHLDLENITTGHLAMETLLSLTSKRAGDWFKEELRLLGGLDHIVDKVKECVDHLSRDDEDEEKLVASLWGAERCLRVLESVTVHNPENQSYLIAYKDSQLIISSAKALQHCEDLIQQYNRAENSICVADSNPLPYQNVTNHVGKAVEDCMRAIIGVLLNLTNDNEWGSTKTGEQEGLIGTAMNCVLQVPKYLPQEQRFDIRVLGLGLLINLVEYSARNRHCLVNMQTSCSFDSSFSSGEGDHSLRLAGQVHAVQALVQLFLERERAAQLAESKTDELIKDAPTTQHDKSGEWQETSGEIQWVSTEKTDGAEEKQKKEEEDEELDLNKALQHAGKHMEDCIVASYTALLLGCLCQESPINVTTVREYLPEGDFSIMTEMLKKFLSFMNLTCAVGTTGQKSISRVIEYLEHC
UniProt Q640N3: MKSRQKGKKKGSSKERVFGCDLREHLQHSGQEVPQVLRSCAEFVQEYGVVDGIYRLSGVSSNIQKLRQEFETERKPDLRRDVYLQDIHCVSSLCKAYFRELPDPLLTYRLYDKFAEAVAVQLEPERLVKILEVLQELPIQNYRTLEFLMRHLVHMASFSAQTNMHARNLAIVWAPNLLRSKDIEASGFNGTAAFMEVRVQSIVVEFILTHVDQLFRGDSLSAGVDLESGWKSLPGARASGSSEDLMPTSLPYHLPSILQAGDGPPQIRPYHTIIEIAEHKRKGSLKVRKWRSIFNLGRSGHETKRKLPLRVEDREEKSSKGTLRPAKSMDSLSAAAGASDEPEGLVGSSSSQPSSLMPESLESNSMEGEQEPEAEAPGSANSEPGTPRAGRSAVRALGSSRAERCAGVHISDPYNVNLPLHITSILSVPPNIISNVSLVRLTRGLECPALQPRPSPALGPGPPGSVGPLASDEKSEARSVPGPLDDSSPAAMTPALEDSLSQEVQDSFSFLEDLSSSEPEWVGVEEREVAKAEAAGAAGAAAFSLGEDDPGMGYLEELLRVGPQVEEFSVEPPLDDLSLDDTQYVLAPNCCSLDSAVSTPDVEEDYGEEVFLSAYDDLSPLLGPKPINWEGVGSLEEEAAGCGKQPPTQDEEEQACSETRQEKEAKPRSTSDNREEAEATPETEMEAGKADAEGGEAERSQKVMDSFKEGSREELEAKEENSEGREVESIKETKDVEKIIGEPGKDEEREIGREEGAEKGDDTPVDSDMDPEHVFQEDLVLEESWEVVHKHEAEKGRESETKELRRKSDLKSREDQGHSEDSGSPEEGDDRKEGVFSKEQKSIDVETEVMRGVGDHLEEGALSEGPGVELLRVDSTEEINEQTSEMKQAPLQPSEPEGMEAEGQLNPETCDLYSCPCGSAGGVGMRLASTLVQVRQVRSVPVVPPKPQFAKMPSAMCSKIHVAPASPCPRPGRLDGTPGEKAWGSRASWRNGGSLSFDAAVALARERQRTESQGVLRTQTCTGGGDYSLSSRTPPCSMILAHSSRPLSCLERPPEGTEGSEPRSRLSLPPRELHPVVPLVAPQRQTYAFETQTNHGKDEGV
UniProt Q62311, whole entry: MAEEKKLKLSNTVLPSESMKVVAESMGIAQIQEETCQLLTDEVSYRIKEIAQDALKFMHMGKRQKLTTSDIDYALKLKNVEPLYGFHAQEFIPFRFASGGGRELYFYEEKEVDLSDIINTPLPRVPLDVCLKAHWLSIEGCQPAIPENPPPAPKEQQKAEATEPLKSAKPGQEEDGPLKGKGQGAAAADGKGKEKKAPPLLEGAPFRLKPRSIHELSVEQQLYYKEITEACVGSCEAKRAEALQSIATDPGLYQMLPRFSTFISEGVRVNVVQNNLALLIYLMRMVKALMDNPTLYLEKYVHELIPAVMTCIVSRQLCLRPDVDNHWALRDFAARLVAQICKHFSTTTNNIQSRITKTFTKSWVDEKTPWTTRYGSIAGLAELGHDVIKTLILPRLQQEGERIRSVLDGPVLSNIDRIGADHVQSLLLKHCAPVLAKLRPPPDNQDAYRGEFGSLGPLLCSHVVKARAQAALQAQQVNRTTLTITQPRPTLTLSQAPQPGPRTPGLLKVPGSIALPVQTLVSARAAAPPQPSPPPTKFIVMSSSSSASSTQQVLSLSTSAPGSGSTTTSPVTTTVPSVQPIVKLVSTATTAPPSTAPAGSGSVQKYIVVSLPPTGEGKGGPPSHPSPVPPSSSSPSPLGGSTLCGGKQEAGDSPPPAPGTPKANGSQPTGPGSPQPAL
UniProt Q62203: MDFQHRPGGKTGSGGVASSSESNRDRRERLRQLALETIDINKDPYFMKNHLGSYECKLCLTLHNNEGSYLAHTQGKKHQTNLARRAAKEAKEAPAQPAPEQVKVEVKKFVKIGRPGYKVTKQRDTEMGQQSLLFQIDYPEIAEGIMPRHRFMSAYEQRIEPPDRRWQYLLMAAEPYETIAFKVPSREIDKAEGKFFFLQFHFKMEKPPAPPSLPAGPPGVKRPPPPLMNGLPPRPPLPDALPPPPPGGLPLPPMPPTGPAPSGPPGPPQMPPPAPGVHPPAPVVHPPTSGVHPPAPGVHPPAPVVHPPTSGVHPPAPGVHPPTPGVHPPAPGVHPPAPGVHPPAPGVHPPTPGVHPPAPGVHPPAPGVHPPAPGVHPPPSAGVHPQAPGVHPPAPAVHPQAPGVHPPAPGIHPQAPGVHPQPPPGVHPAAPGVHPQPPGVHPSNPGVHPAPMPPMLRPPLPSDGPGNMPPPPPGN
UniProt Q61818: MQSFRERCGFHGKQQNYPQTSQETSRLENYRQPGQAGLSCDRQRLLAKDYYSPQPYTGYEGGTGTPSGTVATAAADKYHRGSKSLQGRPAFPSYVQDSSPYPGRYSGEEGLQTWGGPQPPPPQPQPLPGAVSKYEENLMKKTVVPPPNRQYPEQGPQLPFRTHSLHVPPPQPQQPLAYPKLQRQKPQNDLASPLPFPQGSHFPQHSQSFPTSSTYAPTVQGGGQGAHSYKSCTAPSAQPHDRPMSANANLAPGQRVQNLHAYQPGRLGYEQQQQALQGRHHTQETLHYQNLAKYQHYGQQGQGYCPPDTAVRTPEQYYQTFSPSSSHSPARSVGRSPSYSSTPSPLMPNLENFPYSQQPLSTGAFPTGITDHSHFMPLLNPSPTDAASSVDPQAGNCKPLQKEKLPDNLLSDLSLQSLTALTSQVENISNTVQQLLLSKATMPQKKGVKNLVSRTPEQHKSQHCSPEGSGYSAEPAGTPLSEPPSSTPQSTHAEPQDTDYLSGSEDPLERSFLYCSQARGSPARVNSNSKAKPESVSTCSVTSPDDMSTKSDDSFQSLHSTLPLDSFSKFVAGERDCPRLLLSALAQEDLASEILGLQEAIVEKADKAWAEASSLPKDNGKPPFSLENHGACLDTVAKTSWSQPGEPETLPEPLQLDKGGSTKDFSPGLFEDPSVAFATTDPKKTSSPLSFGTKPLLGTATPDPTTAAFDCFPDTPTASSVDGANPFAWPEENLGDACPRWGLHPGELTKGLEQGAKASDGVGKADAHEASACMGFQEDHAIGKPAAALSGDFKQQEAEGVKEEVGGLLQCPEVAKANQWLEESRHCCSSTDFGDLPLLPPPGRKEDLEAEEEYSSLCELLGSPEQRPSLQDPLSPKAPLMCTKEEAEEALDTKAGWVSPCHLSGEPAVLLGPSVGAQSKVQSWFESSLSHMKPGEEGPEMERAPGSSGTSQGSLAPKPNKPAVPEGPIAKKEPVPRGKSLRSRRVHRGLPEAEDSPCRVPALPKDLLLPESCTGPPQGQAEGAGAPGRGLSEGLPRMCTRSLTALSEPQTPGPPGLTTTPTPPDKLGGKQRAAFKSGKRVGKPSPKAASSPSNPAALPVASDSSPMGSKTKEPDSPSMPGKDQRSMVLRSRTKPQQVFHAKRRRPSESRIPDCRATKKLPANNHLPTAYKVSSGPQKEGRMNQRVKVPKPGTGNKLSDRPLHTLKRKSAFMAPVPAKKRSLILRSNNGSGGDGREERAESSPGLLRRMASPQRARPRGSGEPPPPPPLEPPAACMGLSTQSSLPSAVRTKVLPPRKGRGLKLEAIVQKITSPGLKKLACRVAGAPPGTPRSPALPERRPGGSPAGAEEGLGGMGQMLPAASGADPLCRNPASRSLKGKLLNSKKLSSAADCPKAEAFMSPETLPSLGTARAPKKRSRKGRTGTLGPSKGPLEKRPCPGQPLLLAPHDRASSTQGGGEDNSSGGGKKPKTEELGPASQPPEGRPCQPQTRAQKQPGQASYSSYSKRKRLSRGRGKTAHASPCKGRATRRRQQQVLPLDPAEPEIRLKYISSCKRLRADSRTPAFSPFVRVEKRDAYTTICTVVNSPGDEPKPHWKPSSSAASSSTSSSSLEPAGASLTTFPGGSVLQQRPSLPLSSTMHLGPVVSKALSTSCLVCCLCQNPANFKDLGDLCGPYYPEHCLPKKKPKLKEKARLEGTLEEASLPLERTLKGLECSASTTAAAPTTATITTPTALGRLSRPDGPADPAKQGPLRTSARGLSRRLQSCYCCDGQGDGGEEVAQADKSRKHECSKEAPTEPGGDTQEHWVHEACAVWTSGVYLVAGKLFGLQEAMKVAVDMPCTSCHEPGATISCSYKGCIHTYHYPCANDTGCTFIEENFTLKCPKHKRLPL

compound: CN[C@@H]1C[C@H]2O[C@@](C)([C@@H]1OC)n1c3ccccc3c3c4c(c5c6ccccc6n2c5c31)C(=O)NC4 [staurosporine]; test: log2 fold change of tryptic peptide abundance, ligand vs vehicle (limited proteolysis) (log2 ratio); higher = more trypsin-susceptible (destabilized); settings: ligand concentration: 20 uM; sample: mouse liver crude lysate; replicate design: treated separately

**Q.** With “UniProt Q69ZH9 (peptide sequence: TSEDNMTDMVTHMPDRYK, peptide start residue: 1063)” as the target, how does the log2 fold change read?
**A.** 0.754

**Q.** “UniProt Q69ZI1 (peptide sequence: AQGSTVVNCGSK, peptide start residue: 99)” was tested. Which log2 fold change did it give?
**A.** 0.319

**Q.** “UniProt Q61753 (peptide sequence: KVLISDSLDPCCRK, peptide start residue: 8)” was tested. Which log2 fold change did it give?
**A.** -0.296

**Q.** How did the log2 fold change turn out when “UniProt Q61851 (peptide sequence: LLAVPAANTVR, peptide start residue: 157)” was run?
**A.** 0.0848

**Q.** “UniProt Q64505 (peptide sequence: AFIQNNLDSFK, peptide start residue: 200)” was tested. Which log2 fold change did it give?
**A.** 0.348

**Q.** Which log2 fold change does the source give for “UniProt Q61508 (peptide sequence: EVKPHTLAGQLPPEPR, peptide start residue: 148)” here?
**A.** -0.282

**Q.** How did the log2 fold change turn out when “UniProt Q69ZL1 (peptide sequence: GLESDWQGLATGEEKR, peptide start residue: 647)” was run?
**A.** -0.554

**Q.** For “UniProt Q69ZK0 (peptide sequence: FRYDDGTYK, peptide start residue: 489)”, which log2 fold change is on record?
**A.** -0.402

**Q.** For “UniProt Q62384 (peptide sequence: EVIIMATNCENCGHR, peptide start residue: 280)”, which log2 fold change is on record?
**A.** -0.629

**Q.** Which log2 fold change does the source give for “UniProt Q61702 (peptide sequence: HAVDTSVNGVSIK, peptide start residue: 39)” here?
**A.** -0.708

**Q.** Which log2 fold change does the source give for “UniProt Q62276 (peptide sequence: ETLLQSYNKR, peptide start residue: 12)” here?
**A.** 0.597

**Q.** How did the log2 fold change turn out when “UniProt Q62356 (peptide sequence: SFDNGDSHLDSSEFLK, peptide start residue: 153)” was run?
**A.** 0.353

**Q.** For “UniProt Q61908 (peptide sequence: SLVCSGFEKEEEEK, peptide start residue: 47)”, which log2 fold change is on record?
**A.** -0.224

**Q.** Which log2 fold change does the source give for “UniProt Q64455 (peptide sequence: IPVTNLSQLHK, peptide start residue: 203)” here?
**A.** 0.442

**Q.** “UniProt Q61823 (peptide sequence: EIDMLLK, peptide start residue: 330)” was tested. Which log2 fold change did it give?
**A.** -0.385

**Q.** With “UniProt Q62018 (peptide sequence: LLKEQEEK, peptide start residue: 856)” as the target, how does the log2 fold change read?
**A.** -0.293

**Q.** With “UniProt Q62448 (peptide sequence: KGQLNADEISLRPAQSFLMNK, peptide start residue: 463)” as the target, how does the log2 fold change read?
**A.** -0.171

**Q.** For “UniProt Q61990 (peptide sequence: IANPVEGSTDR, peptide start residue: 320)”, which log2 fold change is on record?
**A.** 0.056

**Q.** Which log2 fold change does the source give for “UniProt Q61598 (peptide sequence: DLGTDSQIFISR, peptide start residue: 391)” here?
**A.** -0.62

**Q.** Which log2 fold change does the source give for “UniProt Q64707 (peptide sequence: QREEEEQKLQEK, peptide start residue: 114)” here?
**A.** -0.48

**Q.** Which log2 fold change does the source give for “UniProt Q65Z40 (peptide sequence: DSQLIISSAK, peptide start residue: 887)” here?
**A.** -0.597

**Q.** How did the log2 fold change turn out when “UniProt Q64685 (peptide sequence: MIHTNLKR, peptide start residue: 1)” was run?
**A.** -0.456

**Q.** How did the log2 fold change turn out when “UniProt Q64674 (peptide sequence: SRYQDILVFR, peptide start residue: 46)” was run?
**A.** -0.232

**Q.** With “UniProt Q640N3 (peptide sequence: ELHPVVPLVAPQR, peptide start residue: 1072)” as the target, how does the log2 fold change read?
**A.** -0.306

**Q.** For “UniProt Q62441 (peptide sequence: SKELSLNEK, peptide start residue: 307)”, which log2 fold change is on record?
**A.** -0.382

**Q.** How did the log2 fold change turn out when “UniProt Q62311 (peptide sequence: LSNTVLPSESMK, peptide start residue: 9)” was run?
**A.** 0.548

**Q.** For “UniProt Q62203 (peptide sequence: LRQLALETIDINKDPYFMK, peptide start residue: 30)”, which log2 fold change is on record?
**A.** -0.314

**Q.** For “UniProt Q68FD7 (peptide sequence: HHSEPLKEDR, peptide start residue: 779)”, which log2 fold change is on record?
**A.** 0.538

**Q.** How did the log2 fold change turn out when “UniProt Q61818 (peptide sequence: AESSPGLLR, peptide start residue: 1239)” was run?
**A.** 0.589

**Q.** Which log2 fold change does the source give for “UniProt Q64008 (peptide sequence: VTCACQEHR, peptide start residue: 36)” here?
**A.** -0.286

**Q.** How did the log2 fold change turn out when “UniProt Q62417 (peptide sequence: RAGEQDPVPTPAELTSPGR, peptide start residue: 170)” was run?
**A.** -0.22
